# Reference: PubChem BioAssay AID493014 (National Center for Advancing Translational Sciences (NCATS), 2011)
# The other results are listed elsewhere or left out. Further columns of the screen follow, without active or inactive calls. Compounds called inactive in the main read-out are mostly missing here. The note in brackets gives the kind of curve behind each potency; many fits are weak.
# Assay: qHTS Assay to Find Inhibitors of Chronic Active B-Cell Receptor Signaling
# Conditions: ABC-DLBCL IkBa-CBG/CBR reporter, luminescence ratio (green luciferase fused to IkBa over red control in TMD8 lymphoma cells), 4 h
# Method in brief: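 Compounds up to 46 uM were incubated four hours with TMD8 cells whose green CBG68 luciferase is fused to IkappaBalpha; red CBR luminescence normalised the signal, and concentration-effect curves were fitted to fusion, red and ratio data.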
# [1] = measured here: CBR red luminescence, cell number
# [2] = measured here: IkBa-CBG green luminescence
Compound,AC50 [1],AC50 [2]
Cc1ccccc1N1CC(O)(c2ccccc2)[N+]2=C1SCC2 (stereo unspecified),"25.9 µM [falling, single point]",–
COCCn1c(SCC(=O)Nc2ccc(NC(=O)c3ccco3)c(OC)c2)nc2ccccc2c1=O,"25.9 µM [rising, partial curve, poor fit]",–
O=C(CC1NCCc2ccccc21)Nc1ccccc1Cl (stereo unspecified),"35.5 µM [falling, single point]",–
Cc1ccc(N(C(=O)Cn2nnc3ccccc32)C(C(=O)NCc2ccco2)c2cccnc2)cc1 (stereo unspecified),"17.8 µM [rising, single point]",–
Cc1ccc(Nc2nnc(-c3ccc4c(c3)OCO4)o2)c(C)c1,"7.94 µM [falling, partial curve]",–
COCCCNC(=O)Nc1ccc(F)cc1F,"6.51 µM [rising, single point]",–
CC(C)n1ncc2c(C(=O)NCC(=O)Nc3ccccc3Br)cc(C3CC3)nc21,"29.1 µM [falling, single point]",–
CC(C)C(c1nnnn1Cc1ccc(F)cc1)N1CCN(C2CCCCC2)CC1 (stereo unspecified),"3.98 µM [falling, full curve, poor fit]",–
Cc1ccc(-n2c(C)cc(/C=N/Nc3ccc([N+](=O)[O-])cn3)c2C)cc1,"6.31 µM [rising, full curve, poor fit]",–
O=C(Nc1ccc(N2CCCCC2)c(Cl)c1)c1ncn[nH]1,"1.41 µM [rising, full curve]",–
NC(=O)N1CCN(C(=O)c2ccco2)CC1,"0.146 µM [rising, full curve, poor fit]",–
O=C(Nc1ccc(S(=O)(=O)N2CCOCC2)cc1)c1cc(-c2cc(Cl)ccc2O)n[nH]1,"25.1 µM [falling, single point]",–
CC1CCC(NC(=O)c2ccc(NC(=O)CC3SC(N4CCCC4)=NC3=O)cc2)CC1 (stereo unspecified),"5.8 µM [falling, full curve]",–
O=C(CCc1ccccc1)n1nc(-c2ccco2)nc1SCc1ccccc1,"0.411 µM [rising, full curve]",–
COc1ccccc1C(=O)N1CCN(c2nc3cc(C)c(C)cc3cc2C#N)CC1,"20.6 µM [falling, single point]",–
O=C(Nc1nc2ccccc2s1)NC1CCCCC1,"28.2 µM [falling, partial curve, poor fit]",–
COc1ccc(Cl)cc1NC(=O)COC(=O)CNC(=O)C1CCCCC1,"23.1 µM [rising, single point]",–
CCNC(=O)NC(=O)COc1ccccc1C#N,"15.8 µM [falling, single point]",–
CCN(CC)C(=O)CSc1ccccc1N,"29.1 µM [rising, single point]",–
CC(=O)N(/N=C/c1ccc(C)cc1)c1nc(CCl)cs1,"20 µM [rising, single point]",–

# Some values from the entries so far:
# Entry for `O=C(CC1NCCc2ccccc21)Nc1ccccc1Cl` (stereo unspecified) under AC50 [1]: 35.5 µM [falling, single point]
# Entry for `O=C(Nc1ccc(N2CCCCC2)c(Cl)c1)c1ncn[nH]1` under AC50 [1]: 1.41 µM [rising, full curve]

# The list goes on.

Compound,AC50 [1],AC50 [2]
CCCNC(=O)N1CCN(C(=O)NCCC)CC1,"0.366 µM [rising, full curve, poor fit]",–
Oc1[nH]c(N=C2N=c3ccccc3=N2)c2ccccc12,"17.8 µM [falling, partial curve, poor fit]","1.12 µM [falling, full curve]"
C=CCC[C@H](Cc1ccc(F)cc1)C(=O)OC[C@@H](NC(=O)[C@@H](CC=C)CC(=O)N[C@H](CO)Cc1ccccc1)C(C)(C)C,"23.1 µM [falling, single point]",–
Fc1ccccc1CSc1nc2ncc(Br)cc2[nH]1,"1.03 µM [falling, full curve, poor fit]",–
CCOc1ccc(N(CC(=O)Nc2ccccc2C)S(=O)(=O)c2c(C)noc2C)cc1,"2.82 µM [rising, partial curve, poor fit]","7.94 µM [falling, partial curve]"
O=C(COC(=O)Cc1ccsc1)NCC12CC3CC(CC(C3)C1)C2,"0.146 µM [rising, full curve, poor fit]",–
COCCn1c(SCC(=O)Nc2ccc3c(c2)OCCO3)nnc1-c1c[nH]c2ccccc12,"3.55 µM [rising, single point]",–
Cc1noc(C)c1S(=O)(=O)N(C)C[C@H]1Oc2ccc(NS(=O)(=O)c3cn(C)cn3)cc2C(=O)N([C@H](C)CO)C[C@@H]1C,"4.61 µM [rising, single point]",–
CCC(C)NC(=O)c1cc(Cl)c(NC(=O)C2=C(C)OCCS2)cc1OC (stereo unspecified),"0.224 µM [rising, full curve, poor fit]",–
CCCC(=O)Nc1ccc(C#Cc2ccccc2)cc1,"4.47 µM [rising, partial curve]",–
C=CCN(CC=C)C(=S)NCCc1ccc(OC)c(OC)c1,"0.82 µM [rising, partial curve, poor fit]",–
CN(C1CCCCC1)S(=O)(=O)c1ccc(S(=O)(=O)N2CCN(C(=O)c3ccccc3F)CC2)cc1,"2.59 µM [rising, full curve]",–
CCCNC(=O)c1cccc(COc2ccccc2OC)c1,"20 µM [falling, single point]",–
COc1ccc(/C=N/NC(=O)c2ccc3c(c2)OCO3)c(C(=O)O)c1OC,"20 µM [falling, partial curve, poor fit]",–
CCOC(=O)[C@@H]1[C@H]2COc3ccccc3[C@H]2N2C(=O)N(c3cccc(Cl)c3)C(=O)[C@@]12C,"11.2 µM [falling, partial curve, poor fit]",–
CCCCC(=O)N1C/C=C\C(c2ccc(OC)cc2)N(Cc2ccc(F)cc2)C(=O)[C@H]1Cc1ccccc1 (stereo partly specified),"7.94 µM [falling, partial curve, poor fit]",–
N#Cc1cccnc1N1CCN(C(=O)c2cccc3c2C(=O)c2ccc(-c4ccc(F)cc4OCc4ccccc4)cc2S3(=O)=O)CC1,"2.91 µM [rising, partial curve, poor fit]",–
O=C(CCN1C(=O)C2CCCCC2C1=O)Nc1ccc(Br)cc1F (stereo unspecified),"32.6 µM [rising, partial curve, poor fit]",–
COc1ccc(C(=O)CNc2ccc3ccccc3c2)cc1,"22.4 µM [falling, single point]",–
